No constants are given. Whether binding was seen depends on the method and setting. Sequences can lack the tags named with a protein.
Target: cyclization domain of cyclic β-1,2-glucan synthase from Thermoanaerobacter italicus (TiCGSCy) (Thermoanaerobacter italicus) (UniProt D3T4C1)
Assay: SEC; Superdex 200GL column, 0.5 mg/ml (500 μl) loaded, 50 mM Tris-HCl buffer (pH 8.0) containing 150 mM NaCl; molecular weight markers ovalbumin, conalbumin, aldolase, ferritin, thyroglobulin; both purified

binding: no binding (tested: 0.5 mg/ml)
B1: cyclization domain of cyclic β-1,2-glucan synthase from Thermoanaerobacter italicus (TiCGSCy) (domain or fragment, UniProt D3T4C1 1005-1591)
chain: IISKEKTVSQEEMEELRLVARKTWRYFEDFVTEGQNYLPPDNFQEDPPNGVAERTSPTNIGLYLVSVIGARDLGYITTTEMVERIKKTLDTIEKMEKWNGHLYNWYNTKTLEPLRPYYVSTVDSGNLVGYLITVKEAIGEFLNKPLIDIELAKGLKDTIKMLNVKGITEDIFTTILSKTTLVPSEWEAFLNKIREKLLSSQDDLENIKRLKNIIIALKGEMKEFLVWTEFDESEKEQEIFKRYKEVFEEHSSPKELEKVYKNYLLEIEEVFKKATEEEKALLKSQKDKVAQALEKIKKLEAEIENIKSTIENLVEKTEFRHLYDEKRQLFSIGYNVEEEKLTKSYYDLLASEARQASFIAIAKKEVDKKHWFKLGRMLAIENRYKGLVSWSGTMFEYFMPLLVMRNYQNTLLDETYAFAVRVQKNYAKELGIPWGISESGFYAFDMNLNYQYKAFGVPSLGLKRGLSHDKVVAPYGSLLAIGVDVEGVLQNIRFFKKEGAEGKYGFYEAIDYTPERVPFGKKSAIVKSFMAHHQGMVFVALDNFINNNVMQKRFHKDPRIKAAQILLQEKMPMYLDITREEREGARK

Source: article PMC10834661
